Data as given in patent US6995178B2, “Insecticidal anthranilamides” (E. I. du Pont de Nemours and Company, priority 2000, dated 2006).
Some entries share one result that the patent states for a list of compounds. Some compounds share one range, which may span the group rather than tell each member.

System: Diamondback Moth (DBM)—Plutella Xylostella
Experiment: Diamondback Moth (DBM) plant feeding damage test on radish plants
Assay type: in vivo
Settings: sprayed at 250 ppm, 1 mL per test unit, 12-14 day old radish plant pre-infested with 10-15 neonate larvae, held 6 days at 25° C. and 70% relative humidity, replicated three times

Compound	Plant feeding damage visually assessed on a scale of 0-10 (excellent levels of plant protection: ratings of 0-1, 10% or less feeding damage)
CCc1cc(C(=O)Nc2c(Cl)cccc2C(=O)NC(C)C)n(C(F)(F)F)n1 [Compound D8]	0-1
Cc1cccc(C(=O)NC(C)C)c1NC(=O)c1ccc(C(F)(F)F)cc1-n1ccc(C(F)(F)F)n1 [Compound 217]	0-1
CCSCCNC(=O)c1cccc(C)c1NC(=O)c1ccc(C(F)(F)F)cc1 [Compound 193]	0-1
Cc1cccc(C(=O)NC(C)C)c1NC(=O)c1ccc(C(F)(F)F)cc1C(=O)N1CCCC1 [Compound 250]	0-1
Cc1cccc(C(=O)NC(C)C)c1NC(=O)c1ccc(C#N)cc1 [Compound 66]	0-1
Cc1cc(C(F)(F)F)ccc1C(=O)Nc1c(Cl)cccc1C(=O)NC(C)C [Compound 99]	0-1
CCc1cccc(C(=O)NC(C)C)c1NC(=O)c1ccc(C(F)(F)F)cc1 [Compound 196]	0-1
CC(C)NC(=O)c1cccc(Cl)c1NC(=O)c1ccc(C(F)(F)F)cc1-n1ccnc1 [Compound 238]	0-1
Cc1cccc(C(=O)NC(C)C)c1NC(=O)c1cnn(CC(F)(F)F)c1C [Compound F2]	0-1
Cc1cc(C(F)(F)F)ccc1C(=O)Nc1ccccc1C(=O)NC(C)C [Compound 61]	0-1
CC(C)NC(=O)c1cccc(Cl)c1NC(=O)c1cc(C(F)(F)F)nn1-c1ccccc1 [Compound D18]	0-1
Cc1cccc(C(=O)NC(C)C)c1NC(=O)c1ccc(OCC(F)(F)F)nc1 [Compound B2]	0-1
CC(C)(C)NC(=O)c1cccc(I)c1NC(=O)c1cc(C(F)(F)F)nn1-c1ccccc1 [Compound D26]	0-1
Cc1cc(C)c(NC(=O)c2ccc(C(F)(F)F)cc2C)c(C(=O)NC(C)C)c1 [Compound 98]	0-1
CSc1nc(C(F)(F)F)ncc1C(=O)Nc1c(C)cccc1C(=O)NC(C)C [Compound C12]	0-1
Cc1cc(SC(F)F)ccc1C(=O)Nc1c(C)cccc1C(=O)NC(C)(C)C [Compound 74]	0-1
CC(C)NC(=O)c1cccc(Cl)c1NC(=O)c1cc(Br)nn1-c1ccccc1 [Compound D87]	0-1
CCNC(=O)c1cccc(C)c1NC(=O)c1ccc(C(F)(F)F)cc1 [Compound 127]	0-1
Cc1cccc(C(=O)NC(C)(C)C)c1NC(=O)c1cccc([N+](=O)[O-])c1 [Compound 14]	0-1
Cc1cc(C(=O)Nc2c(C)cccc2C(=O)NC(C)C)n(C)n1 [Compound D6]	0-1
CCSCCNC(=O)c1cccc(C)c1NC(=O)c1ccc(C(F)(F)F)cc1C [Compound 194]	0-1
Cc1cccc(C(=O)NNC(C)C)c1NC(=O)c1ccc(OC(F)(F)F)cc1 [Compound 64]	0-1
CCC(C)NC(=O)c1cccc(Cl)c1NC(=O)c1cc(C(F)(F)F)nn1-c1ccccc1 (stereo not shown) [Compound D63]	0-1
Cc1cccc(NC(=O)c2cc(C(F)(F)F)nn2-c2ncccc2Cl)c1C(=O)NC(C)C [Compound D62]	0-1
Cc1cccc(C(=O)NC(C)(C)C)c1NC(=O)c1cncs1 [Compound H3]	0-1
CCNC(=O)c1cccc(Cl)c1NC(=O)c1cc(C(F)(F)F)nn1-c1ccccc1 [Compound D65]	0-1
Cc1cccc(C(=O)NC(C)C)c1NC(=O)c1ccc(C(F)(F)F)cc1-c1cc(Cl)no1 [Compound 253]	0-1
Cc1cccc(C(=O)NC(C)C)c1NC(=O)c1cc(C(F)(F)F)nn1-c1ccc(F)cc1 [Compound D48]	0-1

Compound	Plant feeding damage visually assessed on a scale of 0-10 (excellent levels of plant protection: ratings of 0-1, 10% or less feeding damage)
CC(C)NC(=O)c1cccc(Cl)c1NC(=O)c1cc(C(F)(F)F)nn1-c1cccc(Cl)c1 [Compound D45]	0-1
O=C(NCCCCl)c1cccc(Cl)c1NC(=O)c1cc(C(F)(F)F)nn1-c1ccccc1 [Compound D81]	0-1
Cc1cccc(C(=O)NC(C)C)c1NC(=O)c1cnn(-c2ccccc2)c1C(F)(F)F [Compound F5]	0-1
Cc1cccc(C(=O)NC(C)C)c1NC(=O)c1cc(Br)ccc1C(=O)N(C)C [Compound 204]	0-1
Cc1cccc(C(=O)NC(C)C)c1NC(=O)c1ccc(C(F)(F)F)nc1Cl [Compound B46]	0-1
CCCc1nc(C(F)(F)F)ccc1C(=O)Nc1c(C)cccc1C(=O)NC(C)C [Compound B42]	0-1
CCC(C)NC(=O)c1cccc(C)c1NC(=O)c1ccc(OC(F)(F)F)cc1 (stereo not shown) [Compound 30]	0-1
Cc1cccc(C(=O)NC(C)C)c1NC(=O)c1cc(C(F)(F)F)ccc1C(=O)N(C)C [Compound 249]	0-1
Cc1cccc(C(=O)NC(C)(C)C)c1NC(=O)c1cc(C(F)(F)F)ccc1C(F)(F)F [Compound 86]	0-1
Cc1cccc(C(=O)NCc2cccnc2)c1NC(=O)c1ccc(OC(F)(F)F)cc1 [Compound 190]	0-1
COCC(C)NC(=O)c1cccc(C)c1NC(=O)c1ccc(C(F)(F)C(F)(F)F)nc1C (stereo not shown) [Compound B19]	0-1
Cc1cccc(C(=O)NC(C)C)c1NC(=O)c1nc(C(F)(F)F)nn1-c1ccccc1Cl [Compound J6]	0-1
COC(=O)C(NC(=O)c1cccc(Cl)c1NC(=O)c1cc(C(F)(F)F)nn1-c1ccccc1)C(C)C (stereo not shown) [Compound D83]	0-1
Cc1cc(C(F)(F)F)ccc1C(=O)Nc1c(I)cccc1C(=O)NC(C)C [Compound 209]	0-1
CC(C)(C)NC(=O)c1cccc(C(F)(F)F)c1NC(=O)c1ccc(C(F)(F)F)cc1 [Compound 89]	0-1
Cc1cccc(C(=O)NC(C)C)c1NC(=O)c1cc(Br)nn1-c1ccccc1 [Compound D86]	0-1
Cc1cccc(C(=O)NC(C)C)c1NC(=O)c1ccc(F)cc1C(=O)N(C)C [Compound 210]	0-1
CC(C)NC(=O)c1cccc(C(F)(F)F)c1NC(=O)c1cc(C(F)(F)F)nn1-c1ccccc1 [Compound D52]	0-1
CC(C)NC(=O)c1c(Cl)cccc1NC(=O)c1cc(C(F)(F)F)nn1-c1ncccc1Cl [Compound D70]	0-1
Cc1cccc(C(=O)NC(C)C)c1NC(=O)c1ccc(C(F)(F)F)cc1-n1nc(C(F)(F)F)cc1C [Compound 228]	0-1
CC(C)NC(=O)c1cccc(F)c1NC(=O)c1ccc(C(F)(F)F)cc1 [Compound 184]	0-1
Cc1cccc(C(=O)NC(C)C)c1NC(=O)c1ccc(C(F)(F)F)cc1-n1ccnc1 [Compound 227]	0-1
Cc1cccc(C(=O)NC(C)C)c1NC(=O)c1cnc(C(C)C)nc1C [Compound C9]	0-1
CC(C)NC(=O)c1cccc(Cl)c1NC(=O)c1cc(C(F)(F)F)nn1-c1c(Cl)cccc1Cl [Compound D85]	0-1
COCC(C)NC(=O)c1cccc(C)c1NC(=O)c1ccc(C(F)(F)F)cc1C (stereo not shown) [Compound 150]	0-1
Cc1nc(C(F)(F)F)ccc1C(=O)Nc1c(I)cccc1C(=O)NC(C)C [Compound B31]	0-1
CCc1nc(C(F)(F)F)ncc1C(=O)Nc1c(C)cccc1C(=S)NC(C)C [Compound C79]	0-1
